From patent US10519339B2, “Method for applying a coating to a polymeric substrate” (Sophion Bioscience A/S, priority 2012, dated 2019)

Conditions: 5 h, 100 nM

In the case of CCCCc1oc2ccccc2c1C(=O)c1cc(I)c(OCCN(CC)CC)c(I)c1 [amiodarone], the “initial drug remaining in solution” value was “less than 3%”.
